Measured values: the supplement of paper PMC10849652
This is one part of the list.

Sequences of proteins named here, by UniProt entry; tags and fusion partners are left off. A change or cut given only in a name is not applied to a line headed by its entry.
UniProt P56192: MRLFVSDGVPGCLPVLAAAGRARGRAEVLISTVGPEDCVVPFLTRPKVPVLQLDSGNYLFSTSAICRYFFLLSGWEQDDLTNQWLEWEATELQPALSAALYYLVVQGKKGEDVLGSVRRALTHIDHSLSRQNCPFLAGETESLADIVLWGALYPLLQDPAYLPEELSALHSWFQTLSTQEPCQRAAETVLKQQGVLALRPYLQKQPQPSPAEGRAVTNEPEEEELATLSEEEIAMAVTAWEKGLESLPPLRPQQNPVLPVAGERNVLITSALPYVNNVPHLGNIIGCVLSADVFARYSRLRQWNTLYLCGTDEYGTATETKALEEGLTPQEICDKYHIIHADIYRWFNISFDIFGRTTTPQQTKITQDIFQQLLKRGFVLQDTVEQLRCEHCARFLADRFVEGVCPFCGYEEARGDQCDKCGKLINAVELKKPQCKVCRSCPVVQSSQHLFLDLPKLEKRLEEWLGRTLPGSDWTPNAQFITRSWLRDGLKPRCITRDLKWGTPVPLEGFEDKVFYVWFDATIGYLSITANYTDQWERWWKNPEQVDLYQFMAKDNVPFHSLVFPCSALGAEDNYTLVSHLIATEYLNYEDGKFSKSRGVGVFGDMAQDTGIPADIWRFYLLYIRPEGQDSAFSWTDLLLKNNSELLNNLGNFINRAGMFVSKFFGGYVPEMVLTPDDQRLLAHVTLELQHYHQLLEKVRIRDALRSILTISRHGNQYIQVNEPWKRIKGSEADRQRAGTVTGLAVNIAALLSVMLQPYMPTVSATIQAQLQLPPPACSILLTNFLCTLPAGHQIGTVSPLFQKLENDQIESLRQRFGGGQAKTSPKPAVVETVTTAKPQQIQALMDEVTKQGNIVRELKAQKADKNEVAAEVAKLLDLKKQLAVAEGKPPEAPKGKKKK
UniProt Q9HD34: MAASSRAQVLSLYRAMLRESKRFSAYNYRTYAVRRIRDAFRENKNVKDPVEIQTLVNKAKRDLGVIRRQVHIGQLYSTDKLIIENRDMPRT
UniProt P27361, whole entry, looked up: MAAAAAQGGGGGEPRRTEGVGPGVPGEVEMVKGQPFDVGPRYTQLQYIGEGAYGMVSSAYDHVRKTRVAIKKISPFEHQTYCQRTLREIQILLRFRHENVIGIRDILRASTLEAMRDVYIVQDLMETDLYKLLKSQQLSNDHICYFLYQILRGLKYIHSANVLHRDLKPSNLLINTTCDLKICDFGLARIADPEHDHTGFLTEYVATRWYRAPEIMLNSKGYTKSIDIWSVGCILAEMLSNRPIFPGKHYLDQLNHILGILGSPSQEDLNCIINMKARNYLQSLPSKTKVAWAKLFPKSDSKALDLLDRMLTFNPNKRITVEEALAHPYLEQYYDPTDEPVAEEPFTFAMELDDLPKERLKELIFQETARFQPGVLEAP
UniProt O00462: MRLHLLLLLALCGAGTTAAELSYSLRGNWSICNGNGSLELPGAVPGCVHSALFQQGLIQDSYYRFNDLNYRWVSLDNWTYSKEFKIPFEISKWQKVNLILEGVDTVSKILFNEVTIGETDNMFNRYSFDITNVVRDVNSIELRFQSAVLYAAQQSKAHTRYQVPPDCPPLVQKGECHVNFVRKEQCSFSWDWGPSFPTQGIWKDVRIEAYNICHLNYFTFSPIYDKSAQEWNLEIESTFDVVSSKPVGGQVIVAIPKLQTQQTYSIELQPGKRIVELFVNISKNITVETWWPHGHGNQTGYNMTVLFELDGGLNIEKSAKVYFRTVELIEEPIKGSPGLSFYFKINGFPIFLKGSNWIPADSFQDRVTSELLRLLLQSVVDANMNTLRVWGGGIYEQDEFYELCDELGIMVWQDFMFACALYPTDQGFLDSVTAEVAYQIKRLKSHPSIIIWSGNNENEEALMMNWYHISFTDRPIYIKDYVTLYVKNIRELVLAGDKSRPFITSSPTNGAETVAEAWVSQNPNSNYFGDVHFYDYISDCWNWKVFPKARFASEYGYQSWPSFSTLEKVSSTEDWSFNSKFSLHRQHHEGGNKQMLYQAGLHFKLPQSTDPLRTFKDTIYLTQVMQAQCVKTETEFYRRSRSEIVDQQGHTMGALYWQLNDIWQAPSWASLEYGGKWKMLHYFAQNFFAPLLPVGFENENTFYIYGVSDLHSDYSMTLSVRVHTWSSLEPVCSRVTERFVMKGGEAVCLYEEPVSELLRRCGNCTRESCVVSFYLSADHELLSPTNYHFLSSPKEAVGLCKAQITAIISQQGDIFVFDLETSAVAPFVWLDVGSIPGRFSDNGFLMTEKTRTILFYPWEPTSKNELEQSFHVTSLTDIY
UniProt Q9NQ48: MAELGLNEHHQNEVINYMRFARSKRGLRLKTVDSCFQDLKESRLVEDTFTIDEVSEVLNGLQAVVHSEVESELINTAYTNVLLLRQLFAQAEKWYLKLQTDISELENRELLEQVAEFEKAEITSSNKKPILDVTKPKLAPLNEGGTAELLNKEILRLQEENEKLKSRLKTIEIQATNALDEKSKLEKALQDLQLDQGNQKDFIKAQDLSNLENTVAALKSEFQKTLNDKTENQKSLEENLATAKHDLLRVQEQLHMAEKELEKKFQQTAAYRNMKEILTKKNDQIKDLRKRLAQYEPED
UniProt O00754: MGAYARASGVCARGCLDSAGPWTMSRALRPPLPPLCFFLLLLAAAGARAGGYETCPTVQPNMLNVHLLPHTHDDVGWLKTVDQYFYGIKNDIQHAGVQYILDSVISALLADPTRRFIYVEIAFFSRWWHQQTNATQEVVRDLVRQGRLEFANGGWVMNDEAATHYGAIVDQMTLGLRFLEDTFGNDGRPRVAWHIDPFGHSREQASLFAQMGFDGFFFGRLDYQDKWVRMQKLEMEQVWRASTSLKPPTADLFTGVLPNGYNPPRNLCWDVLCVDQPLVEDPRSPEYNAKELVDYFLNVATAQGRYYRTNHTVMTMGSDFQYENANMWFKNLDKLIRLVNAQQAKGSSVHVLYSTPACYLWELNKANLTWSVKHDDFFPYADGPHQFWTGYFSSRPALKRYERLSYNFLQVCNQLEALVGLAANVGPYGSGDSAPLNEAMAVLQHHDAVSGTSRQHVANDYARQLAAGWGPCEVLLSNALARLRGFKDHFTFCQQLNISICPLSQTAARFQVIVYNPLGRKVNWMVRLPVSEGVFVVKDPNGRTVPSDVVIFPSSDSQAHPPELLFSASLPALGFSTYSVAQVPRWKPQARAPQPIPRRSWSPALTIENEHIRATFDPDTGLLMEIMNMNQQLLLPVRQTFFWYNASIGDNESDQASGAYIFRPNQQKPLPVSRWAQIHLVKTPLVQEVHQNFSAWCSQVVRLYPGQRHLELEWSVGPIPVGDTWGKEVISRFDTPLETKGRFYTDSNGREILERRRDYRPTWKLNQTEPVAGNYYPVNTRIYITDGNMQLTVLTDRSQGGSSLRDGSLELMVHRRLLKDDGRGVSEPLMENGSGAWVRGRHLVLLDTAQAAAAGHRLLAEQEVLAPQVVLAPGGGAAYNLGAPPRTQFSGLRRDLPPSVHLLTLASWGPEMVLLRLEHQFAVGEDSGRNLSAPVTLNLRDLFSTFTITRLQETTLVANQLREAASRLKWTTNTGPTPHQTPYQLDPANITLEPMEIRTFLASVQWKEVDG
UniProt Q6UWE0: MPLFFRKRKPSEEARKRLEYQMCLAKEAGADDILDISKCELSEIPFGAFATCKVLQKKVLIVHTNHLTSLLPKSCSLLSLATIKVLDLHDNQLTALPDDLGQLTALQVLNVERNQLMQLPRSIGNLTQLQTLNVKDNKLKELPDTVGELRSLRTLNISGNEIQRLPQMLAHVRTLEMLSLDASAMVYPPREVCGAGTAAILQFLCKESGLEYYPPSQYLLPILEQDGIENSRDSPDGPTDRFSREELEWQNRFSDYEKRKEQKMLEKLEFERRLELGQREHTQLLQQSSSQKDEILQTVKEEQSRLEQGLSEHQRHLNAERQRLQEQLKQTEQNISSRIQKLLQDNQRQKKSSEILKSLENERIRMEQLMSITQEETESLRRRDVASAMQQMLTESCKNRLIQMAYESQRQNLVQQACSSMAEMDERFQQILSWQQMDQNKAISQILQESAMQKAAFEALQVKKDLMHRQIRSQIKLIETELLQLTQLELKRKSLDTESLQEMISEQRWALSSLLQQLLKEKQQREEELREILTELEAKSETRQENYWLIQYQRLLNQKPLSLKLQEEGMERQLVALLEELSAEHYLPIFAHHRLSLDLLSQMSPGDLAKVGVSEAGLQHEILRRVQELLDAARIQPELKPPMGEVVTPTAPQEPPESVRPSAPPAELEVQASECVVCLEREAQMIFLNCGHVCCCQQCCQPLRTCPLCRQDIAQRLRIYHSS
UniProt Q8IV50: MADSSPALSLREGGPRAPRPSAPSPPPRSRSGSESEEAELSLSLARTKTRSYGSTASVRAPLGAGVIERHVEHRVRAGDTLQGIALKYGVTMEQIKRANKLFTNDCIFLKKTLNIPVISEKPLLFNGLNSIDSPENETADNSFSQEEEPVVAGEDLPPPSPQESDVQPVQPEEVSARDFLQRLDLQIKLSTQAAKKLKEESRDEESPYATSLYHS
UniProt Q9NTJ4: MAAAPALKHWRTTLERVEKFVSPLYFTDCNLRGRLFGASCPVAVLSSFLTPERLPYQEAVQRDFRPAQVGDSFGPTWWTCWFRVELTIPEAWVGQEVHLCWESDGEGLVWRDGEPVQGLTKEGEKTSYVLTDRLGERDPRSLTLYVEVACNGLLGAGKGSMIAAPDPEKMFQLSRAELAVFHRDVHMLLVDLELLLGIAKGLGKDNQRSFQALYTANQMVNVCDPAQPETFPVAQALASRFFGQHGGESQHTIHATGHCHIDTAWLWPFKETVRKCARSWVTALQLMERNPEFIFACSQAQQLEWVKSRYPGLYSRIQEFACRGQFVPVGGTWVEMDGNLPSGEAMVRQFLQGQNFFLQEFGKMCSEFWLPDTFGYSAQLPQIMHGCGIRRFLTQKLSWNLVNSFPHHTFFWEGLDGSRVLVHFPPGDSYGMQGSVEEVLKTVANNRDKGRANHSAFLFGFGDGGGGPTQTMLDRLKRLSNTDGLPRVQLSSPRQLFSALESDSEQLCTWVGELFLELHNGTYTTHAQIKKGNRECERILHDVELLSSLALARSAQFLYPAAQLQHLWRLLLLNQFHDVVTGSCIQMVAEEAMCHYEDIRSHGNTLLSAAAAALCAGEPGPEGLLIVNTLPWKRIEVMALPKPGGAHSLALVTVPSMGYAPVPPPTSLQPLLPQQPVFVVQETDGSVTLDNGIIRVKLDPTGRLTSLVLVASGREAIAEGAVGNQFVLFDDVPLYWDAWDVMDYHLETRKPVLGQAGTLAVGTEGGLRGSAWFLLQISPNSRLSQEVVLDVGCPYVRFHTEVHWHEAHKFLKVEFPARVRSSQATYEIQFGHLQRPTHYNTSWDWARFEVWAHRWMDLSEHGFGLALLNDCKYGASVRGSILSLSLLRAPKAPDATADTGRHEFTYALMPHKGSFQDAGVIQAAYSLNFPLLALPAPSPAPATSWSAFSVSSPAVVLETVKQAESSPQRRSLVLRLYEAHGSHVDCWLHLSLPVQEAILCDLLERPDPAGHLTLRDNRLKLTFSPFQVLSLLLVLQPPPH
UniProt O60337: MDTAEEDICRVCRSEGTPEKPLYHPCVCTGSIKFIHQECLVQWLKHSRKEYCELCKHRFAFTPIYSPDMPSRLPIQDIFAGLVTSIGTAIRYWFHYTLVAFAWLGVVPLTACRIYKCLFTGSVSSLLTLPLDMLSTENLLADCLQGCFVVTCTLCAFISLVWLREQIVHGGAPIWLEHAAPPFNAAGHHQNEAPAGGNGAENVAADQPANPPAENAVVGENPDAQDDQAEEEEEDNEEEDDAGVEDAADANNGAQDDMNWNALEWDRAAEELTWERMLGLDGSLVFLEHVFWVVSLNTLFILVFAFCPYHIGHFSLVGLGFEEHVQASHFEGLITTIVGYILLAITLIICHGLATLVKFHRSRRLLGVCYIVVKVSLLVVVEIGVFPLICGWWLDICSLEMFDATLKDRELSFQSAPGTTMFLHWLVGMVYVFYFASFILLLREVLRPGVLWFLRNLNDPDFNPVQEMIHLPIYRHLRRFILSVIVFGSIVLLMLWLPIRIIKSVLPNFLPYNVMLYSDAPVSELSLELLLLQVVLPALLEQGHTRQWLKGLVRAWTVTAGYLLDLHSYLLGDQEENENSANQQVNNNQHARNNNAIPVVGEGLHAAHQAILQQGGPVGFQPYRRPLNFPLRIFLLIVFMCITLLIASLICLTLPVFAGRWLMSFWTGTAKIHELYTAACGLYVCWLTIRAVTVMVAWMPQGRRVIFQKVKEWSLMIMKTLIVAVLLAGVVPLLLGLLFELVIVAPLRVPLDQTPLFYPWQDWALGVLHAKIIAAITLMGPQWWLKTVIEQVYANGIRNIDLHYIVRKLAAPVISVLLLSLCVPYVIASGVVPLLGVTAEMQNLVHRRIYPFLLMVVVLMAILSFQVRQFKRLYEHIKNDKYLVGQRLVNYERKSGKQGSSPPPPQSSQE
UniProt Q9NU23: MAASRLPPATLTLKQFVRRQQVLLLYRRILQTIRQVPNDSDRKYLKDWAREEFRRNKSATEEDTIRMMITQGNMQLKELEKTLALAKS

How the values were obtained:
Experiment in all cases: log2 fold change, soluble protein after heating vs DMSO (PISA); higher = thermal stabilisation; K562 cells, 10 uM, 30 min; active = over 0.2 and 3.5 SD of the protein, either way, in both replicates (recomputed)
[1] = compound: CC[C@@H]1C(=O)N(C)c2cnc(Nc3ccc(C(=O)NC4CCN(C)CC4)cc3OC)nc2N1C1CCCC1
Procedure, shortened: (§1)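 Soluble protein was quantified by TMTpro 16plex LC-MS/MS after channel sums were equalised. It was obtained as the supernatant after 21,000xg for 90 min from pooled aliquots of K562 cells (2×10^6 cells/mL, 10 μM compound, 30 min) heated for 3 min across 48°C-58°C and extracted in PBS with 0.5% NP-40 at 4°C. Thermal stability values are relative to control samples and come from duplicates. They are given as log2 fold changes.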

volasertib = compound: CC[C@@H]1C(=O)N(C)c2cnc(Nc3ccc(C(=O)N[C@H]4CC[C@H](N5CCN(CC6CC6)CC5)CC4)cc3OC)nc2N1C(C)C [volasertib]
Procedure, shortened: as §1

[2] = compound: CC[C@H](C)N1C=C(C2=C(C=C(C=C21)C3=CN=C(C=C3)N4CCNCC4)C(=O)NCC5=C(C=C(NC5=O)C)C)C
Procedure, shortened: as §1

epoxomicin = compound: CC[C@H](C)[C@@H](C(=O)N[C@@H]([C@@H](C)O)C(=O)N[C@@H](CC(C)C)C(=O)[C@]1(CO1)C)NC(=O)[C@H]([C@@H](C)CC)N(C)C(=O)C [epoxomicin]
Procedure, shortened: as §1

[3] = compound: CCn1c(C(=O)N(C2CC2)C2CC2)cc2c3c(ncn3C)c(Nc3cc(C)n(C)n3)nc21
Procedure, shortened: as §1

[4] = compound: CCn1cc(-c2ccnc3[nH]c(-c4cccc(CN(C)C)c4)cc23)c(-c2ccc(NC(=O)N(C)C)cc2)n1
Procedure, shortened: as §1

[5] = compound: CN(C)CC(=O)Nc1ccc2[nH]c(=O)c3ccccc3c2c1
Procedure, shortened: as §1

rosiglitazone = compound: CN(CCOC1=CC=C(C=C1)C[C@H]2C(=O)NC(=O)S2)C3=CC=CC=N3 (racemic) [rosiglitazone]
Procedure, shortened: as §1

[6] = compound: CN1C2=C(C3=C1C(=O)N(N=C3)CC4=CC(=CC=C4)N)SC(=C2)S(=O)C
Procedure, shortened: as §1

[7] = compound: CN1CCC(CNc2ccc3ncc(-c4cccc(OC(F)(F)F)c4)n3n2)CC1
Procedure, shortened: as §1

saracatinib = compound: CN1CCN(CCOc2cc(OC3CCOCC3)c3c(Nc4c(Cl)ccc5c4OCO5)ncnc3c2)CC1 [saracatinib]
Procedure, shortened: as §1

sotrastaurin = compound: CN1CCN(c2nc(C3=C(c4c[nH]c5ccccc45)C(=O)NC3=O)c3ccccc3n2)CC1 [sotrastaurin]
Procedure, shortened: as §1

alvocidib = compound: CN1CC[C@H](c2c(O)cc(O)c3c(=O)cc(-c4ccccc4Cl)oc23)[C@H](O)C1 [alvocidib]
Procedure, shortened: as §1

Tubastatin A = compound: CN1CCc2c(c3ccccc3n2Cc2ccc(C(=O)NO)cc2)C1 [Tubastatin A]
Procedure, shortened: as §1

[8] = compound: CNC(=O)C1=CC=CC=C1NC2=NC(=NC=C2Cl)NC3=C(C=C(C=C3)N4CCOCC4)OC
Procedure, shortened: as §1

defactinib = compound: CNC(=O)c1ccc(Nc2ncc(C(F)(F)F)c(NCc3nccnc3N(C)S(C)(=O)=O)n2)cc1 [defactinib]
Procedure, shortened: as §1

rucaparib = compound: CNCc1ccc(-c2[nH]c3cc(F)cc4c3c2CCNC4=O)cc1 [rucaparib]
Procedure, shortened: as §1

[9] = compound: CNc1nc(-c2ccc3c(N)n[nH]c3c2)cc(N2C[C@@H](C(=O)NC3CCCCC3)CC[C@H]2C)n1
Procedure, shortened: as §1

encorafenib = compound: COC(=O)N[C@@H](C)CNc1nccc(-c2cn(C(C)C)nc2-c2cc(Cl)cc(NS(C)(=O)=O)c2F)n1 [encorafenib]
Procedure, shortened: as §1

[10] = compound: COC(=O)[C@H](CCSC)NC(=O)C1=C(C=C(C=C1)NC[C@H](CS)N)C2=CC=CC=C2
Procedure, shortened: as §1

Measured: log2 fold change

MARS (UniProt P56192)
inactive: [1] -0.007 | volasertib -0.078 | [2] 0.067 | epoxomicin -0.018 | [3] -0.009 | [4] 0.005 | [5] -0.001 | rosiglitazone -0.014 | [6] 0.049 | [7] -0.067 | saracatinib -0.017 | sotrastaurin -0.024 | alvocidib 0.042 | Tubastatin A -0.011 | [8] -0.045 | defactinib 0.05 | rucaparib 0.137 | [9] 0.04 | encorafenib 0.081 | [10] -0.005

LYRM4 (UniProt Q9HD34)
inactive: [1] 0.03 | volasertib 0.005 | [2] 0.022 | epoxomicin 0.075 | [3] 0.008 | [4] -0.014 | [5] 0 | rosiglitazone -0.063 | [6] -0.106 | [7] 0.072 | saracatinib 0.037 | sotrastaurin 0.041 | alvocidib -0.002 | Tubastatin A -0.006 | [8] 0.01 | defactinib -0.043 | rucaparib -0.003 | [9] -0.003 | encorafenib -0.001 | [10] 0.015

LSM7 (UniProt Q9UK45)
inactive: [1] 0.043 | volasertib 0.065 | [2] -0.082 | epoxomicin -0.008 | [3] 0.038 | [4] 0 | [5] -0.046 | rosiglitazone 0.039 | [6] -0.047 | [7] -0.001 | saracatinib 0.031 | sotrastaurin 0.043 | alvocidib 0.02 | Tubastatin A -0.063 | [8] -0.02 | defactinib 0.053 | rucaparib -0.06 | [9] 0.04 | encorafenib 0.004 | [10] 0.01

MACF1 (UniProt Q9UPN3)
inactive: [1] 0.062 | volasertib -0.05 | [2] 0.036 | epoxomicin -0.032 | [3] -0.03 | [4] 0 | [5] 0.017 | rosiglitazone 0.005 | [6] 0.115 | [7] 0.021 | saracatinib -0.096 | sotrastaurin -0.169 | alvocidib -0.006 | Tubastatin A 0.066 | [8] 0.056 | defactinib 0.005 | rucaparib 0.087 | [9] 0.077 | encorafenib 0.076 | [10] -0.024

MAGEB2 (UniProt O15479)
inactive: [1] -0.031 | volasertib 0.302 | [2] 0.052 | epoxomicin -0.521 | [3] 0.016 | [4] 0.131 | [5] -0.132 | rosiglitazone -0.101 | [6] 0.435 | [7] 0.123 | saracatinib -0.134 | sotrastaurin -0.032 | alvocidib 0.139 | Tubastatin A -0.061 | [8] 0.101 | defactinib 0.274 | rucaparib -0.076 | [9] 0.182 | encorafenib -0.02 | [10] -0.04

MAPK3 (UniProt P27361)
inactive: [1] -0.007 | volasertib -0.022 | [2] 0.013 | epoxomicin 0.064 | [3] 0.003 | [4] -0.037 | [5] 0.072 | rosiglitazone 0.018 | [6] 0.063 | [7] 0.064 | saracatinib -0.04 | sotrastaurin -0.052 | alvocidib -0.045 | Tubastatin A 0.013 | [8] 0.102 | defactinib -0.069 | rucaparib -0.031 | [9] 0 | encorafenib 0.081 | [10] -0.005

MANBA (UniProt O00462)
inactive: [1] -0.006 | volasertib -0.049 | [2] 0.01 | epoxomicin -0.024 | [3] -0.009 | [4] -0.007 | [5] 0.055 | rosiglitazone 0.001 | [6] -0.048 | [7] -0.138 | saracatinib 0.069 | sotrastaurin 0.017 | alvocidib 0.022 | Tubastatin A -0.011 | [8] -0.009 | defactinib -0.074 | rucaparib -0.045 | [9] -0.02 | encorafenib 0.207 | [10] 0.072

LZTFL1 (UniProt Q9NQ48)
inactive: [1] -0.006 | volasertib -0.017 | [2] 0.014 | epoxomicin 0.065 | [3] 0.014 | [4] -0.039 | [5] -0.009 | rosiglitazone 0.064 | [6] -0.083 | [7] 0.043 | saracatinib 0.03 | sotrastaurin 0 | alvocidib -0.069 | Tubastatin A -0.019 | [8] -0.011 | defactinib -0.058 | rucaparib -0.041 | [9] -0.008 | encorafenib 0.015 | [10] 0.023

MAN2B1 (UniProt O00754)
inactive: [1] -0.015 | volasertib 0.081 | [2] 0.029 | epoxomicin 0.024 | [3] -0.023 | [4] 0.068 | [5] -0.011 | rosiglitazone 0.011 | [6] -0.03 | [7] -0.01 | saracatinib 0.031 | sotrastaurin 0.042 | alvocidib 0.053 | Tubastatin A 0.009 | [8] -0.005 | defactinib -0.03 | rucaparib 0.122 | [9] -0.078 | encorafenib -0.005 | [10] 0.03

LRSAM1 (UniProt Q6UWE0)
inactive: [1] -0.085 | volasertib -0.204 | [2] 0.028 | epoxomicin 0.077 | [3] -0.024 | [4] -0.052 | [5] -0.02 | rosiglitazone 0.02 | [6] -0.002 | [7] -0.172 | saracatinib -0.013 | sotrastaurin -0.012 | alvocidib -0.087 | Tubastatin A 0.024 | [8] 0.032 | defactinib -0.072 | rucaparib -0.001 | [9] -0.05 | encorafenib 0.022 | [10] -0.038

LYSMD2 (UniProt Q8IV50)
inactive: [1] 0.062 | volasertib -0.02 | [2] 0.026 | epoxomicin -0.053 | [3] -0.015 | [4] 0.11 | [5] 0.008 | rosiglitazone 0.038 | [6] -0.087 | [7] -0.008 | saracatinib 0.054 | sotrastaurin -0.013 | alvocidib -0.024 | Tubastatin A -0.019 | [8] -0.051 | defactinib -0.053 | rucaparib -0.001 | [9] -0.019 | encorafenib 0 | [10] -0.037

MACF1 (UniProt H3BQK9)
inactive: [1] -0.067 | volasertib -0.098 | [2] 0.134 | epoxomicin -0.029 | [3] -0.014 | [4] 0.006 | [5] -0.007 | rosiglitazone 0.061 | [6] -0.106 | [7] 0.107 | saracatinib -0.126 | sotrastaurin -0.187 | alvocidib 0.02 | Tubastatin A -0.008 | [8] 0.052 | defactinib 0.106 | rucaparib 0.121 | [9] 0.077 | encorafenib 0.181 | [10] 0.024

MAN2C1 isoform 4 (UniProt Q9NTJ4)
inactive: [1] 0.075 | volasertib 0.059 | [2] -0.113 | epoxomicin 0.044 | [3] -0.025 | [4] 0.02 | [5] -0.052 | rosiglitazone 0.048 | [6] 0.035 | [7] -0.061 | saracatinib -0.033 | sotrastaurin 0.039 | alvocidib 0.105 | Tubastatin A 0.109 | [8] 0.04 | defactinib -0.008 | rucaparib 0.005 | [9] -0.099 | encorafenib 0.021 | [10] 0.036

MARCHF6 (UniProt O60337)
inactive: [1] -0.005 | volasertib -0.125 | [2] 0.039 | epoxomicin 0.171 | [3] 0.033 | [4] -0.011 | [5] -0.017 | rosiglitazone -0.004 | [6] -0.029 | [7] -0.21 | saracatinib 0.026 | sotrastaurin -0.051 | alvocidib -0.029 | Tubastatin A -0.018 | [8] -0.007 | defactinib -0.006 | rucaparib -0.016 | [9] -0.011 | encorafenib 0.031 | [10] -0.004

LYRM2 (UniProt Q9NU23)
inactive: [1] 0 | volasertib -0.035 | [2] -0.007 | epoxomicin -0.014 | [3] -0.068 | [4] 0.02 | [5] 0.028 | rosiglitazone 0.023 | [6] -0.074 | [7] 0.007 | saracatinib 0.005 | sotrastaurin -0.002 | alvocidib -0.042 | Tubastatin A -0.013 | [8] 0.007 | defactinib -0.066 | rucaparib -0.071 | [9] -0.098 | encorafenib 0.013 | [10] -0.008

Random excerpt: 2 entries already listed
MARS (UniProt P56192)
inactive: [1] -0.007 | volasertib -0.078 | [2] 0.067 | epoxomicin -0.018 | [3] -0.009 | [4] 0.005 | [5] -0.001 | rosiglitazone -0.014 | [6] 0.049 | [7] -0.067 | saracatinib -0.017 | sotrastaurin -0.024 | alvocidib 0.042 | Tubastatin A -0.011 | [8] -0.045 | defactinib 0.05 | rucaparib 0.137 | [9] 0.04 | encorafenib 0.081 | [10] -0.005

LYRM2 (UniProt Q9NU23)
inactive: [1] 0 | volasertib -0.035 | [2] -0.007 | epoxomicin -0.014 | [3] -0.068 | [4] 0.02 | [5] 0.028 | rosiglitazone 0.023 | [6] -0.074 | [7] 0.007 | saracatinib 0.005 | sotrastaurin -0.002 | alvocidib -0.042 | Tubastatin A -0.013 | [8] 0.007 | defactinib -0.066 | rucaparib -0.071 | [9] -0.098 | encorafenib 0.013 | [10] -0.008
